Consider six molecules from patent US20260102487A1.

Test [1] concerns the target cynomolgus IL-2Rβγ receptor on cynomolgus T-cells (PBMCs) (cynomolgus). The test can be described thus: flow cytometry on cynomolgus T-cells. (Flow cytometry measures light scatter and fluorescence of single cells or particles in a stream.)
Test [2] shares this target. The experiment in a line: flow cytometry cell binding on cynomolgus CD8+ T-cells (PBMC), gMFI as fold over secondary antibody only.

These are yes or no findings as the source states them, for the method shown. Binding can be weak; no strength is given.

B1: BsAb-1 (IL2RB_F09C**IL2RG_F16A) (bispecific antibody, human IgG4, V domains shown, not shown: small tags and cut ends)
V domain 1: QVQLQESGPGLVKPSGTLSLTCAVSGGSISSSDWWSWVRQPPGKGLEWIGEIDHSGSTNYNPSLMSRVTISVDKSKNQFSLKLSSVTAADTAVYFCGRGSWELSDAFDIRGQGTLVTVSS
V domain 2: QVQLVESGGGLVKPGGSLRLSCAASGFTFSDYYMSWIRQAPGKGLEWVSSISSSGDTIYYADSVQGRFTLSRDNAENSLFLQMNSLRAEDTAVYYCARGDAVSITGDYRGQGTLVTVSS
B1: the binding entry in test [1] and in test [2] was “binds” each time.

B2: BsAb-3 (IL2RB_F09G**IL2RG_F16C) (bispecific antibody, human IgG4, V domains shown, not shown: small tags and cut ends)
V domain 1: QVQLQESGPGLVKSSETLSLTCTVSGGSISSSDWWSWVRQPPGKGLEWIGEIDHSGSTNYNPSLMSRVTISVDKSKNQFSLKLSSVTAADTAVYFCARGSWELTDAFDIRGQGTLVTVSS
V domain 2: QVQLVESGGGLVKPGGSLRLSCAASGFTFNDYYMSWIRQAPGKGLEWVSHISSSGSTIYYADSVKGRFTVSRDNANNSLYLQMHSLRAEDTAVYYCARGDAVSITGDYRGQGTLVTVSS
For B2, the binding result in test [1] and in test [2] was “binds” throughout.

B3: BsAb-2 (IL2RB_F09G**IL2RG_F16B) (bispecific antibody, human IgG4, V domains shown, not shown: small tags and cut ends)
V domain 1: QVQLQESGPGLVKSSETLSLTCTVSGGSISSSDWWSWVRQPPGKGLEWIGEIDHSGSTNYNPSLMSRVTISVDKSKNQFSLKLSSVTAADTAVYFCARGSWELTDAFDIRGQGTLVTVSS
V domain 2: QVQLVESGGGLVKPGGSLRLSCAASGFTFSDYYMSWIRQAPGKGLEWVSYISSSGSTIYYADSVKGRFTISRDNAKNSLYLQMNSLRAEDTAVYYCARGDAVSITGDYRGQGTLVTVSS
Consider B3, for which the binding result in test [1] and in test [2] was “binds” in each case.

B4: BsAb-4 (IL2RB_F09G**IL2RG_F18A) (bispecific antibody, human IgG4, V domains shown, not shown: small tags and cut ends)
V domain 1: QVQLQESGPGLVKSSETLSLTCTVSGGSISSSDWWSWVRQPPGKGLEWIGEIDHSGSTNYNPSLMSRVTISVDKSKNQFSLKLSSVTAADTAVYFCARGSWELTDAFDIRGQGTLVTVSS
V domain 2: QVQLVESGGDLVKPGGSLRLSCAASGFTFSDYYMSWLRQAPGKELEWVSHISSSGTTTYYADSVEGRFTITRDNAKNSLYLQMNSLRAEDTAVYYCARGAAVAPGFDSRGQGTLVTVSS
With B4, the binding entry in test [1] and in test [2] was “binds” each time.

B5: BsAb-5 (IL2RB_F09K**IL2RG_F16B) (bispecific antibody, human IgG4, V domains shown, not shown: small tags and cut ends)
V domain 1: QVQLQESSPGLVKPSETLSLTCTVSGGSISSSNWWSWVRQPPGKGLEWIGEISHSGSTNYNPSLKSRVTISVDKSKNQFSLRLSSVTAADTAVYFCGRGSWELTDAFDIRGQGTLVTVSS
V domain 2: QVQLVESGGGLVKPGGSLRLSCAASGFTFSDYYMSWIRQAPGKGLEWVSYISSSGSTIYYADSVKGRFTISRDNAKNSLYLQMNSLRAEDTAVYYCARGDAVSITGDYRGQGTLVTVSS
With B5, the binding entry in test [1] and in test [2] was “binds” throughout.

B6: BsAb-6 (IL2RB_F18E**IL2RG_F16A) (bispecific antibody, human IgG4, V domains shown, not shown: small tags and cut ends)
V domain 1: QVQLVESGGGVVQPGRSLRLSCAASGFTFSSYGMHWVRQAPGKEREWVAVISYDGSNKYYTDSVKGRFTISRDNSKNTLYLEMNSLRAEDTAVYYCARDLDYDVLTGDPVGGFDIWGQGTLVTVSS
V domain 2: QVQLVESGGGLVKPGGSLRLSCAASGFTFSDYYMSWIRQAPGKGLEWVSSISSSGDTIYYADSVQGRFTLSRDNAENSLFLQMNSLRAEDTAVYYCARGDAVSITGDYRGQGTLVTVSS
Take B6: the binding entry in test [1] and in test [2] was “binds” each time.
